Results on two molecules are retold here after PMC11406306.

Results are given in words; binding and its absence hold for the method and conditions named. For some assays here: In cells and extracts the contact can be indirect. Some binding calls cover weakened binding; strength is not graded here. Where a sequence is shown, tags or fusion partners need not be part of it.

For experiment [1], the target named is T1, STM-GFP (Arabidopsis thaliana) (UniProt Q38874).
T1 sequence: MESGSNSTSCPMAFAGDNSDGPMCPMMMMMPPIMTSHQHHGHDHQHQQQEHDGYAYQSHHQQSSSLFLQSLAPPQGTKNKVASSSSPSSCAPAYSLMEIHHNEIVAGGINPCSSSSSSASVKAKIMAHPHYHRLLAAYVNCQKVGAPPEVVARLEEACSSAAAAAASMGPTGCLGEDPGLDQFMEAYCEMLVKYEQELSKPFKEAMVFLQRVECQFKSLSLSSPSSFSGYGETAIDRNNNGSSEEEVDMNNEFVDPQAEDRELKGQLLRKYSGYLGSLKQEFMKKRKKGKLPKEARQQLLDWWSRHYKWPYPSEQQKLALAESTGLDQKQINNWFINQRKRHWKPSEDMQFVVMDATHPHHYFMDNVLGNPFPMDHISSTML
The experiment in a line: co-IP; Arabidopsis Col-0 mesophyll cell protoplasts coexpressing SnRK1α1-HA with STM-GFP or GFP alone; GFP-tagged proteins immunoprecipitated, SnRK1α1 detected by immunoblot with an HA antibody; performed three times.

The target of experiment [2] is T2, BD-SnRK1α1 (α1-subunit of SUCROSE NON-…1-RELATED KINASE 1 fused to the GAL4 DNA binding domain) (Arabidopsis thaliana) (UniProt Q38997).
T2 sequence: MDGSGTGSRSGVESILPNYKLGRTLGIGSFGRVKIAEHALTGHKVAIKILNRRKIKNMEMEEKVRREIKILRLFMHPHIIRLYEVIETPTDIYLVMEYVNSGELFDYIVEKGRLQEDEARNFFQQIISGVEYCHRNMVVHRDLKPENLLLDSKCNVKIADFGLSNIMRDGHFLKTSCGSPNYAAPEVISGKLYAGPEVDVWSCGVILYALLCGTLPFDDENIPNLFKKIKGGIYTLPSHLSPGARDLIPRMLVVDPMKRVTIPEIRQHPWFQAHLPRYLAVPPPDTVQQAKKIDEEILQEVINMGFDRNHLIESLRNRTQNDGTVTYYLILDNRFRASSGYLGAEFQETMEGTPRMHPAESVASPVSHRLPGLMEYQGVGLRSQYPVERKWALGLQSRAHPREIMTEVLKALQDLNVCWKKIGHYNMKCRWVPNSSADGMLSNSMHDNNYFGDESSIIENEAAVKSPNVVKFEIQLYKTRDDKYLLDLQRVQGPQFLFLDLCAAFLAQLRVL
The experiment in a line: two-hybrid; GAL4 system; AD-STM coexpressed with BD-SnRK1α1 in yeast; growth on medium lacking Leu, Trp and His (-L-W-H) compared with -L-W; dilutions 10^-1, 10^-2, 10^-3; empty-vector controls; performed three times.

B1: SnRK1α1-HA (enzyme, UniProt Q38997 1-512)
chain: T2 sequence
Consider B1, for which the binding result in experiment [1] is given as “binds”.

B2: AD-STM (SHOOT … fused to the GAL4 activation domain) (protein, UniProt Q38874 1-382)
chain: T1 sequence
Regarding B2, the binding result in experiment [2] was “binds”.
